Laboratory results published in patent US20230265201A1 (published 2023).
Substitutions are numbered along the chain they refer to. These are yes or no findings as the source states them, for the method shown. Some binding calls cover weakened binding; strength is not graded here. For part of these data: Sequences can lack the tags named with a protein.

B1: 9G2 Fab (Fab, V domains shown)
VH: QVQLVESGGGLMQPGGSLRLSCAASGFTFSSSAMSWVRQAPGKGLEWVSSIYSDSSYTYYADSVKSRFTISTDNAKNTLYLQMNSLKPDDTAVYYCAGSSDYEGSFASWGQGTQVTVSS
VL: QSVVTQPPSLSASPGSSVRLTCTLSSGNSVGNYDISWYQQKAGSPPRYLLYYYSDSVKHQGSGVPSRFSGSSDASANAGLLLISGLQPEDEADYYCSAYKSGSHVFGGGTKLTVLG
notes: Llama-derived Fab from phage display; MYC tag at C-terminus of Fd
B2: 9B2 Fab (Fab, V domains shown)
VH: B1 VH with V2L, L4V, S31G, D54H, S56M, G98A, S105L, A107V
VL: B1 VL with S2A, V4L, S25N, G27A, N32S, V57L, K58S, S72T, K100N, S101R
notes: as for B1
B3: 57B6 Fab (Fab, V domains shown)
VH: QLQLVESGGGLVQPGGSLRLSCAASGFSFSHYAMSWVRQAPGKGLEWVSGDNTYDGGTRYQDSVKGRFTISRDNGKNTLYLQMNSLKPEDTAVYYCAKDTGRGIMGEYGMDYWGKGTLVTVSS
VL: QTVVTQEPSLSVSPGGTVTLTCGLKSGSVTSSNYPAWYQQTPGQAPRLLIYNTNSRHSGVPSRFSGSISGNKAALTITGAQPEDEADYYCALYMGSGSANAMFGGGTHLTVLG
notes: as for B1
B4: 1C2 Fab (Fab, V domains shown)
VH: ELQVVESGGGLVQPGGSLRLSCAASGFTLSNYWMHWVRQAPRKGLEWVSTISTDNSRTYYADSVKGRFTISRDHAKNTLILQMNSLKSEDTAVYYCIRGSDYEHWGQGTQVTVSS
VL: QTVVTQEPSLSVSPGGTVTLTCGLSSGSVTTTNYPGWFQQTPGQAPRTLIYSTSSRHSGVPSRFSGSISGNKAALTITGAQPEDEADYYCALEEIGSYTYMFGGGTHLTVLG
notes: as for B1
B5: 8B12 Fab (Fab, V domains shown)
VH: EVQLVESGGGLVQPGGSLRLSCAASGFTFSVYYMNWVRQAPGKGLEWVSDINNEGDTTYYADSVKGRFTISRDNAKNTLTLQMDSLKPEDTALYYCVRDAGYSNHVPIFDSWGQGTQVIVAS
VL: QTVVTQEPSLSVSPGGTVTLTCGLSSGSVTSSNYPGWYQQTPGQAPRVLIYNTNNRHSGVPSRYSGSISGNKAALTITGAEPEDEADYYCNLHLGSYTPMFGGGTKLTVLG
B6: 45F8 Fab (Fab, V domains shown)
VH: B5 VH with V31A, V48I, D56Y, T57E, L93R, P107Q
VL: QAVLTQPSSVSVSLGQTANITCQGGNLGLYGANWYQQNPGRAPILLFYGDNYMPLGIPERFTISKSGGTATLTIDGAQAENESDYYCQSSDYPGNSVFGGGTKLTVLG
B7: 45D9 Fab (Fab, V domains shown)
VH: B5 VH with V31A, V48I, D56Y, T57E, L93R, P107Q
VL: B6 VL with N19K, G28W, F47I, Y52Q, M53R, N81D, S90A, P93S
B8: ARGX-110 (non-fucosylated human IgG1 of germlined 27B3 clone 41D12) (antibody, V domains shown)
VH: EVQLVESGGGLVQPGGSLRLSCAASGFTFSVYYMNWVRQAPGKGLEWVSDINNEGGTTYYADSVKGRFTISRDNSKNSLYLQMNSLRAEDTAVYYCARDAGYSNHVPIFDSWGQGTLVTVSS
VL: QAVVTQEPSLTVSPGGTVTLTCGLKSGSVTSDNFPTWYQQTPGQAPRLLIYNTNTRHSGVPDRFSGSILGNKAALTITGAQADDEAEYFCALFISNPSVEFGGGTQLTVLG
notes: also called ARGX-100; 41D12 (ARGX-110)
B9: 27B3 Fab (Fab, V domains shown)
VH: B5 VH with D56G, D84N
VL: B8 VL with D32T, D62S, L69S, G70E, A82P, D83E, G111S
B10: 9D1 Fab (Fab, V domains shown)
VH: B5 VH with D56G, D84N
VL: QAVVTQEPSLSVSPGGTVTLTCGLSSGSVTSSHYPGWYQQTPGQAPRLLIFNTNSRHSGVPSRFSGSISGNKAALTITGAQPEDEADYYCALLNIDDGSTMFGGGTHLTVLG
notes: as for B1
B11: 4D2 Fab (Fab, V domains shown)
VH: QVQLQESGPGLVKPSQTLSLACTVSGGSITTSYYYWSWIRQPPGKGLEWMGAIGSRGSTYYSPSLKTRTSISRDTSKNQFTLQLSSVTPEDTAVYYCARVTGEITYNSGSYYYTLNLFDYWGQGTQVTVSS
VL: QSVLTQPPSLSASPGSSVRLTCTLSSGNSVGNYDISWYQQKAGSPPRYLLYYYSDSYKNQGSGVPSRFSGSKDPSANAGLLLISGLQAEDEADYYCSVSNSGTYKPVFGGGSKLTVLG
notes: as for B1
B12: 59D10 Fab (Fab, V domains shown)
VH: EVQLVESGGGLVQPGGSLRLSCAASELSFSISEMTWVRQAPGKGLEWVSGISGVTGGSSTSYADSVKGRFTISRDNDKNTLYLQMNSLIPEDTAVYYCATTSGTYYFIPEYEYWGQGTQVTVSS
VL: QSVLTQPPSVSGSPGKTVTISCAGTSSDVGYGYYVSWYQQFPGMAPKLLIYDVNKRASGIADRFSGSKAGNTASLTISGLQSEDEADYYCASYRSSANAVFGGGTHLTVLG
notes: as for B1
B13: 9E1 Fab (Fab, V domains shown)
VH: EVQLQESGGGVVQPGGSLRLSCAASGFTFDDYAMSWVRQAPGKGLEWVSSIYMYDSSTYYADSVKGRFTISTDNAKNTVYLQMNSLKSEDTAVYYCAKDINRSYGSSWSHFGPIFSSWGQGTQVTVSS
VL: QAVVTQEPSLSVSPGGTVTLTCGLTSGSVTSSNYPDWYQQTPGQAPRLLIYNTNSRHSGVPSRFSGSISGNKAALTITGAQPEDEADYYCNLYMGSGGSKVFGGGTKLTVLG
notes: as for B1
B14: 5F4 Fab (Fab, V domains shown)
VH: EVQVQESGGGLVHPGGSLKLSCAASGFTFDTYAMSWVRQAPGKGLEWVSAISWSGGETFYAESMKGRFTISRNNAKNTLYLQMNSLKSEDTAVYYCARGMGLAEGLTDWGQGTQVTVSS
VL: QAVVTHPPSLSASPGSSVRLTCTLISGDNIGGYDISWYQQKTGSPPRYLLYYYSDSYKHQSSGVPSRFSGSKDASANAGLLLISGLQSEDEADYYCSAYKSGSYKAPVFGGGTHLTVLG
notes: as for B1

Assays:
[1] = molecular target: T1, rhesus recombinant CD70 (FLAG-TNC-rhesus CD70) (rhesus macaque (Macaca mulatta)) (UniProt F7GPA5); assay: Biacore off-rate
T1 sequence: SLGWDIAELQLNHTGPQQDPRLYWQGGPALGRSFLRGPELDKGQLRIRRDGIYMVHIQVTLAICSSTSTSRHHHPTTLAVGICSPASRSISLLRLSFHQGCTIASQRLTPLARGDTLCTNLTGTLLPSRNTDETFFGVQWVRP

[2] = molecular target: T2, recombinant human CD70 (Flag-TNC-CD70) (human, UniProt P32970 39-193); assay: Biacore off-rate
T2 construct: extracellular domain; also called recombinant CD70; human Flag-TNC-CD70; not shown: Flag tag and TNC trimerisation domain
T2 sequence (looked up): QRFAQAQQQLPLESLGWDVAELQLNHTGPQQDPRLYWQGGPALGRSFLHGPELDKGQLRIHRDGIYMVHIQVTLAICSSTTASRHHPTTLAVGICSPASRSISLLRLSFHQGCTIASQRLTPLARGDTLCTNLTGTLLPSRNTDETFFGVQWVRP

[3] = molecular target: cynomolgus monkey CD70 on HSC-F cells (cynomolgus monkey); assay: FACS on HSC-F cells
[4] = molecular target: T3, rhesus CD70 on LCL8664 cells (rhesus monkey) (UniProt F7GPA5); assay: FACS on LCL8664 cells
T3 sequence: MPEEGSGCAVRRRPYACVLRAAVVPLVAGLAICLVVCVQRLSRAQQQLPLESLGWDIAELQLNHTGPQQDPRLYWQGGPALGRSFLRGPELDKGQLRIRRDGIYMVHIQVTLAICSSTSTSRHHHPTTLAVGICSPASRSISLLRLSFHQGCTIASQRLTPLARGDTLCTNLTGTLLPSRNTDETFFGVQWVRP

[5] = molecular target: T1, rhesus recombinant CD70 (FLAG-TNC-rhesus CD70) (rhesus macaque (Macaca mulatta)); assay: CD27-CD70 inhibition ELISA
[6] = molecular target: T4, recombinant human CD70 (Flag-TNC-CD70) (human) (UniProt P32970); assay: ELISA on anti-Flag-captured Flag-TNC-CD70
T4 sequence (looked up): T2 sequence (looked up)

[7] = molecular target: T4, recombinant human CD70 (Flag-TNC-CD70) (human); assay: Biacore off-rate

Binder	binding [1]	binding [2]	other results
B1	binds		
B2	binds		
B3	binds	binds	
B4	binds		
B5		binds	
B6		binds	
B7		binds	
B8			binding [3]: binds; binding [4]: binds; binding [5]: binds; binding [6]: binds
B9		binds	
B10	binds		
B11	binds		
B12			binding [7]: binds
B13	binds		
B14	binds		
